Laboratory results reported in publication PMC12280988.
Results are given in words; binding and its absence hold for the method and conditions named. In cells and extracts the contact can be indirect. Some binding calls cover weakened binding; strength is not graded here.

Biological target: T1, CKLF-like MARVEL transmembrane domain containing 3 (CMTM3), wild type (UniProt Q96MX0)
T1 sequence: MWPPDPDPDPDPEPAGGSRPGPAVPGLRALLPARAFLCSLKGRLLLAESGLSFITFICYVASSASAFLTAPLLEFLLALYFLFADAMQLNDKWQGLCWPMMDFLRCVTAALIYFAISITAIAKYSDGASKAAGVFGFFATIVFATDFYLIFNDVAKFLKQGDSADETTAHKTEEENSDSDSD
Assay: co-IP; co-immunoprecipitation shown in supplementary figures (S3C, S4A, S4C, S4D); cells, antibodies and conditions not shown

binding: binds
Substance: peroxisome proliferator-activated receptor gamma (PPARγ), full-length (from UniProt P37231 1-505)
